From paper PMC5161529

Protein sequences, listed by entry. Tags and fused reporters are not part of them. Lines headed by an entry give the natural chain unless they say otherwise; changes in a name come on top.
UniProt P25116: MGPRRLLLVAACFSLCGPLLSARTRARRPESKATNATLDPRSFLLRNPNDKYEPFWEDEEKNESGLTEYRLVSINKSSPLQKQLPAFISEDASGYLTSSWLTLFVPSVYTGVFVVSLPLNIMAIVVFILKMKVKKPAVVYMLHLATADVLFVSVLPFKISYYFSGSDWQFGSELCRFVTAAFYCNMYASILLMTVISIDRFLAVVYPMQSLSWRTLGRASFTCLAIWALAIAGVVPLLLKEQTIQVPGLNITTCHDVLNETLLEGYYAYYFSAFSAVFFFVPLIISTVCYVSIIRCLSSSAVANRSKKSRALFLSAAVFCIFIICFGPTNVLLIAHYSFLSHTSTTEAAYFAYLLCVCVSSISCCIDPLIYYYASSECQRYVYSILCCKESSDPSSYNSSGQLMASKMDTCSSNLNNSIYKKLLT
UniProt P30558: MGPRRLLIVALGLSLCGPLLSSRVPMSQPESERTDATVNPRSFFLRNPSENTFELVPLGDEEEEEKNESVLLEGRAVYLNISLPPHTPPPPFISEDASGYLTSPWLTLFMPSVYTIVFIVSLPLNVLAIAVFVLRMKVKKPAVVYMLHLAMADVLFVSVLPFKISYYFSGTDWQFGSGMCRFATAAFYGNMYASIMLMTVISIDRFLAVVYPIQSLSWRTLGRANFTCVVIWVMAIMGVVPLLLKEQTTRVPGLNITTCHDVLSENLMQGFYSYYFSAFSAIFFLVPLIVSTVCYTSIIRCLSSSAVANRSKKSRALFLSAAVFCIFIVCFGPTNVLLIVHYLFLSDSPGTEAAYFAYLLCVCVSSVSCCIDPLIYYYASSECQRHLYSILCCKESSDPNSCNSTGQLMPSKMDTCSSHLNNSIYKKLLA

Experiments:
[1] = target: T1, TGFβRII (mouse (endogenous in J1 mESCs)) (UniProt Q62312); test: co-IP; mESCs transduced with adenovirus encoding FLAG-PAR1, modified RIPA buffer; IP with rabbit anti-TGFβRII antibody; blots with mouse anti-FLAG, anti-TGFβRII, goat anti-TGFβRI
T1 sequence: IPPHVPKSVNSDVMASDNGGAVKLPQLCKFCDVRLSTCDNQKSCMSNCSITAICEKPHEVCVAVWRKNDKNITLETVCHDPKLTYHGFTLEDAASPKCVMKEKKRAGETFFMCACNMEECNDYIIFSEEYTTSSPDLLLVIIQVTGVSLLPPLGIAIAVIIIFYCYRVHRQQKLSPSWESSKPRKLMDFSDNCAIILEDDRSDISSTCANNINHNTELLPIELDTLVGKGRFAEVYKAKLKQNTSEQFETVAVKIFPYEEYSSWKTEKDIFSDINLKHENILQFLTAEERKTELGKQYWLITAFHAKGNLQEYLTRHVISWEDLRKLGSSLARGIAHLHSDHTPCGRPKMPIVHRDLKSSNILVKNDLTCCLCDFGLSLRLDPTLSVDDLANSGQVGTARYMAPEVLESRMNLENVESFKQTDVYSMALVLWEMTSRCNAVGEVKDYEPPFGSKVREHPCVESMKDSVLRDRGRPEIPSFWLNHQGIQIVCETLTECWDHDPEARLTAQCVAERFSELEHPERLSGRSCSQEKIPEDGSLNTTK

[2] = target: T1, TGFβRII (mouse (endogenous in J1 mESCs)); test: condition: only cells stimulated with PAR1-AP (15 μM); co-IP; as a1, mESCs stimulated with PAR1-AP (15 μM); IP with mouse anti-TGFβRII antibody; blot for PAR1
[3] = target: T1, TGFβRII (mouse (endogenous in J1 mESCs)); test: co-IP; endogenous proteins in lysates (modified RIPA buffer) of wild-type or Par1-/- mESCs, or mESCs given PBS, PAR1-AP or TGF-β1 (10 ng/mL); IP with mouse anti-TGFβRII antibody and protein A/G Sepharose; blots for PAR1, TGFβRI, TGFβRII

Substance | binding [1] | binding [2] | binding [3]
FLAG-tagged human PAR1 (adenovirus, in mESCs) (from UniProt P25116) (receptor) | binds | – | –
PAR1 (Protease Activated Receptor 1) (from UniProt P30558) | – | no binding | binds

These are yes or no findings as the source states them, for the method shown. Binding seen in cells or lysates may run through a third protein. For part of these data: A result given as binding can be weak or reduced; the word gives no strength.
